Test results reported in US20100144672A1, “PYRIMIDINYL PYRAZOLES AS INSECTICIDES AND PARASITICIDE ACTIVE AGENTS” (BAYER CROPSCIENCE AG, priority 2006, published 2010).
Some entries share one result that the patent states for a list of compounds.

Experiments:
Format in all cases: in vivo
Boophilus microplus = Boophilus microplus test (BOOPMI injection); settings: application rate 20 μg/animal, after 7 d, injection into abdomen
[1] = system: caterpillars of the army worm (Spodoptera frugiperda); test: Spodoptera frugiperda test (SPODFR spray treatment); settings: application rate 500 g/ha, after 7 d
Description: Spodoptera frugiperda Test (SPODFR Spray Treatment) [table] To produce a suitable preparation of active compound, 1 part by weight of active compound is mixed with the stated amounts of solvents and emulsifier, and the concentrate is diluted with emulsifier-containing water to the desired concentration. Discs of maize leaves (Zea mays) are sprayed with an active compound preparation of the desired concentration and, after drying, populated with caterpillars of the army worm (Spodoptera frugiperda). After the desired period of time, the effect in % is determined 100% means that all caterpillars have been killed; 0% means that none of the caterpillars have been killed.

Lucilia cuprina larvae = test: Lucilia cuprina test (LUCICU); settings: application rate 100 ppm, after 2 d, treated horse meat
Description: Lucilia cuprina Test (LUCICU) Solvent: dimethyl sulphoxide To produce a suitable preparation of active compound, 1 part by weight of active compound is mixed with the stated amount of water, and the concentrate is diluted with water to the desired concentration. Containers containing horse meat treated with the active compound preparation of the desired concentration are populated with Lucilia cuprina larvae. After the desired period of time, the kill in % is determined 100% means that all larvae have been killed; 0% means that none of the larvae have been killed.

[2] = system: larvae of the mustard beetle (Phaedon cochleariae); test: Phaedon test (PHAECO spray treatment); settings: application rate 500 g/ha, after 7 d
Description: Phaedon Test ([…] Spray Treatment) [table] To produce a suitable preparation of active compound, 1 part by weight of active compound is mixed with the stated amounts of solvents and emulsifier, and the concentrate is diluted with emulsifier-containing water to the desired concentration. Discs of chinese cabbage (Brassica pekinensis) are sprayed with an active compound preparation of the desired concentration and, after drying, populated with larvae of the mustard beetle (Phaedon cochleariae). After the desired period of time, the effect in % is determined 100% means that all beetle larvae have been killed; 0% means that none of the beetle larvae have been killed.

[3] = system: adult fleas (Ctenocephalides felis); test: Ctenocephalides felis; oral (CTECFE); settings: application rate 20 ppm, after 2 d, oral via citrated cattle blood

Nc1c(-c2cccc(Cl)c2)c(C(F)(F)F)nn1-c1ncccn1 [Example 1-5]
≥ 80%: activity in % (100% = no tick laid fertile eggs) (Boophilus microplus) | activity (effect in %, caterpillars killed) [1] | activity (kill in %, larvae) (Lucilia cuprina larvae) | activity (effect in %, beetle larvae killed) [2] | activity (kill in %, fleas) [3]

Nc1c(-c2cccc(I)c2)c(C(F)(F)F)nn1-c1ncccn1 [Example 1-11]
≥ 80%: activity in % (100% = no tick laid fertile eggs) (Boophilus microplus) | activity (kill in %, larvae) (Lucilia cuprina larvae) | activity (effect in %, beetle larvae killed) [2]

Nc1c(-c2ccc(F)c(F)c2)c(C(F)(F)F)nn1-c1ncccn1 [Example 1-71]
≥ 80%: activity in % (100% = no tick laid fertile eggs) (Boophilus microplus) | activity (effect in %, caterpillars killed) [1] | activity (kill in %, larvae) (Lucilia cuprina larvae) | activity (effect in %, beetle larvae killed) [2]

Nc1c(-c2ccc(Br)c(Cl)c2)c(C(F)(F)F)nn1-c1ncccn1 [Example 1-82]
≥ 80%: activity in % (100% = no tick laid fertile eggs) (Boophilus microplus) | activity (effect in %, caterpillars killed) [1] | activity (kill in %, larvae) (Lucilia cuprina larvae) | activity (effect in %, beetle larvae killed) [2]

Nc1c(-c2cc(Cl)cc(Br)c2)c(C(F)(F)F)nn1-c1ncccn1 [Example 1-83]
≥ 80%: activity in % (100% = no tick laid fertile eggs) (Boophilus microplus) | activity (effect in %, caterpillars killed) [1] | activity (kill in %, larvae) (Lucilia cuprina larvae) | activity (effect in %, beetle larvae killed) [2] | activity (kill in %, fleas) [3]

Nc1c(-c2cc(Br)cc(Br)c2)c(C(F)(F)F)nn1-c1ncccn1 [Example 1-89]
≥ 80%: activity in % (100% = no tick laid fertile eggs) (Boophilus microplus) | activity (effect in %, caterpillars killed) [1] | activity (kill in %, larvae) (Lucilia cuprina larvae) | activity (effect in %, beetle larvae killed) [2] | activity (kill in %, fleas) [3]

Nc1c(-c2cc(Cl)c(Cl)c(Cl)c2)c(C(F)(F)F)nn1-c1ncccn1 [Example 2-12]
≥ 80%: activity in % (100% = no tick laid fertile eggs) (Boophilus microplus) | activity (effect in %, caterpillars killed) [1] | activity (kill in %, larvae) (Lucilia cuprina larvae) | activity (effect in %, beetle larvae killed) [2]

Nc1c(-c2cc(C(F)(F)F)cc(C(F)(F)F)c2)c(C(F)(F)F)nn1-c1ncccn1 [Example 3-14]
≥ 80%: activity in % (100% = no tick laid fertile eggs) (Boophilus microplus) | activity (effect in %, caterpillars killed) [1] | activity (kill in %, larvae) (Lucilia cuprina larvae) | activity (effect in %, beetle larvae killed) [2] | activity (kill in %, fleas) [3]

Nc1c(-c2ccc(C(F)(F)F)c(Cl)c2)c(C(F)(F)F)nn1-c1ncccn1 [Example 3-20]
≥ 80%: activity in % (100% = no tick laid fertile eggs) (Boophilus microplus) | activity (effect in %, caterpillars killed) [1] | activity (kill in %, larvae) (Lucilia cuprina larvae) | activity (effect in %, beetle larvae killed) [2] | activity (kill in %, fleas) [3]

Nc1c(-c2ccc(F)c(C(F)(F)F)c2)c(C(F)(F)F)nn1-c1ncccn1 [Example 3-31]
≥ 80%: activity in % (100% = no tick laid fertile eggs) (Boophilus microplus) | activity (effect in %, caterpillars killed) [1] | activity (kill in %, larvae) (Lucilia cuprina larvae) | activity (effect in %, beetle larvae killed) [2] | activity (kill in %, fleas) [3]

Nc1c(-c2cc(F)cc(C(F)(F)F)c2)c(C(F)(F)F)nn1-c1ncccn1 [Example 3-32]
≥ 80%: activity in % (100% = no tick laid fertile eggs) (Boophilus microplus) | activity (effect in %, caterpillars killed) [1] | activity (kill in %, larvae) (Lucilia cuprina larvae) | activity (effect in %, beetle larvae killed) [2]

Nc1c(-c2ccc(OCC(F)(F)F)c(Cl)c2)c(C(F)(F)F)nn1-c1ncccn1 [Example 4-36]
≥ 80%: activity in % (100% = no tick laid fertile eggs) (Boophilus microplus) | activity (effect in %, caterpillars killed) [1] | activity (kill in %, larvae) (Lucilia cuprina larvae) | activity (effect in %, beetle larvae killed) [2]

COc1cc(-c2c(C(F)(F)F)nn(-c3ncccn3)c2N)cc(OC)c1OC [Example 8-24]
≥ 80%: activity in % (100% = no tick laid fertile eggs) (Boophilus microplus) | activity (effect in %, caterpillars killed) [1] | activity (kill in %, larvae) (Lucilia cuprina larvae) | activity (effect in %, beetle larvae killed) [2] | activity (kill in %, fleas) [3]

CCOc1ccc(-c2c(C(F)(F)F)nn(-c3ncccn3)c2N)cc1Br [Example 8-31]
≥ 80%: activity in % (100% = no tick laid fertile eggs) (Boophilus microplus) | activity (effect in %, caterpillars killed) [1] | activity (kill in %, larvae) (Lucilia cuprina larvae) | activity (effect in %, beetle larvae killed) [2]

COc1cc(Cl)c(-c2c(C(F)(F)F)nn(-c3ncccn3)c2N)cc1OC [Example 8-68]
≥ 80%: activity in % (100% = no tick laid fertile eggs) (Boophilus microplus) | activity (effect in %, caterpillars killed) [1] | activity (kill in %, larvae) (Lucilia cuprina larvae) | activity (effect in %, beetle larvae killed) [2] | activity (kill in %, fleas) [3]

CCNc1c(-c2cc(Cl)cc(Cl)c2)c(C(F)(F)F)nn1-c1ncccn1 [Example 12-82]
≥ 80%: activity (effect in %, caterpillars killed) [1] | activity (kill in %, larvae) (Lucilia cuprina larvae) | activity (kill in %, fleas) [3]

Nc1c(-c2cc(Cl)cc(Cl)c2)c(C(F)(F)Cl)nn1-c1ncccn1 [Example 15-57]
≥ 80%: activity in % (100% = no tick laid fertile eggs) (Boophilus microplus) | activity (effect in %, caterpillars killed) [1] | activity (kill in %, larvae) (Lucilia cuprina larvae) | activity (effect in %, beetle larvae killed) [2] | activity (kill in %, fleas) [3]

Nc1c(-c2cc(Cl)cc(Cl)c2)c(C(F)Cl)nn1-c1ncccn1 (stereo not shown) [Example 15-95]
≥ 80%: activity (effect in %, caterpillars killed) [1] | activity (kill in %, larvae) (Lucilia cuprina larvae) | activity (effect in %, beetle larvae killed) [2] | activity (kill in %, fleas) [3]

Nc1c(-c2ccc(I)cc2)c(C(F)(F)Br)nn1-c1ncccn1 [Example 15-108]
≥ 80%: activity in % (100% = no tick laid fertile eggs) (Boophilus microplus) | activity (effect in %, caterpillars killed) [1] | activity (kill in %, larvae) (Lucilia cuprina larvae) | activity (effect in %, beetle larvae killed) [2]

Nc1c(-c2cc(Br)cc(Br)c2)c(C(F)(F)Cl)nn1-c1ncccn1 [Example 15-157]
≥ 80%: activity in % (100% = no tick laid fertile eggs) (Boophilus microplus) | activity (effect in %, caterpillars killed) [1] | activity (kill in %, larvae) (Lucilia cuprina larvae) | activity (effect in %, beetle larvae killed) [2] | activity (kill in %, fleas) [3]

Nc1c(-c2cc(F)cc(C(F)(F)F)c2)c(C(F)(F)Cl)nn1-c1ncccn1 [Example 15-165]
≥ 80%: activity in % (100% = no tick laid fertile eggs) (Boophilus microplus) | activity (effect in %, caterpillars killed) [1] | activity (kill in %, larvae) (Lucilia cuprina larvae) | activity (effect in %, beetle larvae killed) [2]

Nc1c(-c2cc(F)cc(C(F)(F)F)c2)c(C(F)(F)Br)nn1-c1ncccn1 [Example 15-166]
≥ 80%: activity in % (100% = no tick laid fertile eggs) (Boophilus microplus) | activity (effect in %, caterpillars killed) [1] | activity (kill in %, larvae) (Lucilia cuprina larvae) | activity (effect in %, beetle larvae killed) [2]

CC(C)Cc1nn(-c2ncccn2)c(N)c1-c1cc(Cl)cc(Cl)c1 [Example 16-134]
≥ 80%: activity in % (100% = no tick laid fertile eggs) (Boophilus microplus) | activity (effect in %, caterpillars killed) [1] | activity (kill in %, larvae) (Lucilia cuprina larvae) | activity (effect in %, beetle larvae killed) [2]

CC(F)c1nn(-c2ncccn2)c(N)c1-c1ccc(Br)cc1 (stereo not shown) [Example 18-10]
≥ 80%: activity in % (100% = no tick laid fertile eggs) (Boophilus microplus) | activity (effect in %, caterpillars killed) [1] | activity (kill in %, larvae) (Lucilia cuprina larvae) | activity (effect in %, beetle larvae killed) [2]

CC(F)(F)c1nn(-c2ncccn2)c(N)c1-c1cc(C(F)(F)F)cc(C(F)(F)F)c1 [Example 18-233]
≥ 80%: activity in % (100% = no tick laid fertile eggs) (Boophilus microplus) | activity (effect in %, caterpillars killed) [1] | activity (kill in %, larvae) (Lucilia cuprina larvae) | activity (effect in %, beetle larvae killed) [2]

C=CCNc1c(-c2cc(Cl)cc(Cl)c2)c(C(F)(F)F)nn1-c1ncccn1 [Example 27-114]
≥ 80%: activity in % (100% = no tick laid fertile eggs) (Boophilus microplus) | activity (effect in %, caterpillars killed) [1] | activity (kill in %, larvae) (Lucilia cuprina larvae) | activity (effect in %, beetle larvae killed) [2]
